In publication doi:10.1101/2022.03.08.483512:
These are yes or no findings as the source states them, for the method shown. Binding seen in cells or lysates may run through a third protein. Binding can be weak; no strength is given.

Assays:
[1] = biological target: human GABAA receptor α1 subunit carrying the A322D variant (human); test: co-IP
[2] = biological target: human GABAA receptor α1 subunit, wild type (human); test: co-IP

| binding [1] | binding [2] | Binder |
| --- | --- | --- |
| binds | binds | ERLIN2 (protein, UniProt O94905 1-339) MAQLGAVVAVASSFFCASLFSAVHKIEEGHIGVYYRGGALLTSTSGPGFHLMLPFITSYKSVQTTLQTDEVKNVPCGTSGGVMIYFDRIEVVNFLVPNAVYDIVKNYTADYDKALIFNKIHHELNQFCSVHTLQEVYIELFDQIDENLKLALQQDLTSMAPGLVIQAVRVTKPNIPEAIRRNYELMESEKTKLLIAAQKQKVVEKEAETERKKALIEAEKVAQVAEITYGQKVMEKETEKKISEIEDAAFLAREKAKADAECYTAMKIAEANKLKLTPEYLQLMKYKAIASNSKIYFGKDIPNMFMDSAGSVSKQFEGLADKLSFGLEDEPLETATKEN |
| binds | binds | UNC45A (protein, UniProt Q9H3U1 1-944) MTVSGPGTPEPRPATPGASSVEQLRKEGNELFKCGDYGGALAAYTQALGLDATPQDQAVLHRNRAACHLKLEDYDKAETEASKAIEKDGGDVKALYRRSQALEKLGRLDQAVLDLQRCVSLEPKNKVFQEALRNIGGQIQEKVRYMSSTDAKVEQMFQILLDPEEKGTEKKQKASQNLVVLAREDAGAEKIFRSNGVQLLQRLLDMGETDLMLAALRTLVGICSEHQSRTVATLSILGTRRVVSILGVESQAVSLAACHLLQVMFDALKEGVKKGFRGKEGAIIVDPARELKVLISNLLDLLTEVGVSGQGRDNALTLLIKAVPRKSLKDPNNSLTLWVIDQGLKKILEVGGSLQDPPGELAVTANSRMSASILLSKLFDDLKCDAERENFHRLCENYIKSWFEGQGLAGKLRAIQTVSCLLQGPCDAGNRALELSGVMESVIALCASEQEEEQLVAVEALIHAAGKAKRASFITANGVSLLKDLYKCSEKDSIRIRALVGLCKLGSAGGTDFSMKQFAEGSTLKLAKQCRKWLCNDQIDAGTRRWAVEGLAYLTFDADVKEEFVEDAAALKALFQLSRLEERSVLFAVASALVNCTNSYDYEEPDPKMVELAKYAKQHVPEQHPKDKPSFVRARVKKLLAAGVVSAMVCMVKTESPVLTSSCRELLSRVFLALVEEVEDRGTVVAQGGGRALIPLALEGTDVGQTKAAQALAKLTITSNPEMTFPGERIYEVVRPLVSLLHLNCSGLQNFEALMALTNLAGISERLRQKILKEKAVPMIEGYMFEEHEMIRRAATECMCNLAMSKEVQDLFEAQGNDRLKLLVLYSGEDDELLQRAAAGGLAMLTSMRPTLCSRIPQVTTHWLEILQALLLSSNQELQHRGAVVVLNMVEASREIASTLMESEMMEILSVLAKGDHSPVTRAAAACLDKAVEYGLIQPNQDGE |
